Patent US6399747
Results are given in words; binding and its absence hold for the method and conditions named. Binding seen in cells or lysates may run through a third protein. Some binding calls cover weakened binding; strength is not graded here.

Biological target: T1, endogenous Shc of murine cells (NIH 3T3 lysate, primary T cells) (mouse) (UniProt P98083)
T1 sequence (looked up): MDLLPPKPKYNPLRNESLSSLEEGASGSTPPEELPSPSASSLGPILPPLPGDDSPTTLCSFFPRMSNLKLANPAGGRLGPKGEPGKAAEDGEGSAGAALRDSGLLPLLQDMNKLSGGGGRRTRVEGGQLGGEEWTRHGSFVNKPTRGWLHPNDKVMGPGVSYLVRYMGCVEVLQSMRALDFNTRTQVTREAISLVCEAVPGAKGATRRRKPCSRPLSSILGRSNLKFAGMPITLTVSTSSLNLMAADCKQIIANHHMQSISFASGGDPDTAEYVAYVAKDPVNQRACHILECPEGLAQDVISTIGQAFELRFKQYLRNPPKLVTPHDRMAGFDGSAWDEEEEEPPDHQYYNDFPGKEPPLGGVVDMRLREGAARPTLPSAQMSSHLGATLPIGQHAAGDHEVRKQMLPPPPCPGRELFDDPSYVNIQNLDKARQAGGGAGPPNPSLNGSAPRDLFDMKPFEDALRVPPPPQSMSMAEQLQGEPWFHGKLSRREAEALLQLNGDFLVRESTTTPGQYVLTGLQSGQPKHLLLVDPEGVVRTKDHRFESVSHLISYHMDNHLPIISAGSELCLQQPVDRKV
Assay: co-immunoprecipitation from anti-CD3 activated primary mouse T cells, and from CTLA4 deficient T cells

B1: endogenous mPAL from murine cells (P19 cells, primary T cells) (protein)
chain: MADDLRAGGVLEPIAMVPPRPDLAAEKEPASWKEGLFLDADPCSDQGYHANPGATVKTLIPEGKTPFPRIIQTNELLFYERFRAYQDYILADCKASEVKEFTVSFLEKVLEPSGWWAVWHTNVFEVLVEVTNVDFPSLKAVVRLAEPCIYESKLSTFTLANVKELLDLKEFHLPLQELWVVSDDSHEFHQMALAIEHVRFFYKHIWRSWDEEEEDEYDYFVRCVEPRLRLYYDILEDRVPSGLIVDYHNLLSQCEESYRKFLNLRSSLSNCNSDSEQENISMVEGLNLYSEIEQLKQKLKLIENPLLRYVFGYQKNSNIQGKGTRQNGQKVIHVVSSTMKTGLLRSLFKDRFCEESCKEETEIKFHSDLLSGINACYDGDTVIICPGHYVVHGTCSIADSIELEGYGLPDDIVIEKRGKGDTFVDCTGMDVKISGIKFIQHDSVEGILIIHHGKTTLENCVLQCETTGVTVRTSAELFMKNSDVYGAKGAGIEIYPGSKCTLTDNGIHHCKEGILIKDFLDEHYDIPKISMINNVIHNNEGYGVVLVKPTIFCDLQENTQDEINDNMVQKNKEADVTEGLDLEEMLQCVASKMEPYATADFNEQAKGNCEIINELLAISMQKGRMKKRLSELGITQADDNIMSQEMFIEIMGNQFKWNGKGSFGTFLY
Question: Which binding does the source give for B1 here?
Answer: binds
